This assay has as its target 后段Tau蛋白(总Tau蛋白第308~441位氨基酸) (human) (UniProt P10636). The experiment in a line: indirect ELISA, hybridoma supernatant on coated rear Tau fragment. Background: ELISA stands for enzyme-linked immunosorbent assay.

Sequences of proteins named here, by UniProt entry; tags and fusion partners are left off. A change or cut given only in a name is not applied to a line headed by its entry.
UniProt P10636: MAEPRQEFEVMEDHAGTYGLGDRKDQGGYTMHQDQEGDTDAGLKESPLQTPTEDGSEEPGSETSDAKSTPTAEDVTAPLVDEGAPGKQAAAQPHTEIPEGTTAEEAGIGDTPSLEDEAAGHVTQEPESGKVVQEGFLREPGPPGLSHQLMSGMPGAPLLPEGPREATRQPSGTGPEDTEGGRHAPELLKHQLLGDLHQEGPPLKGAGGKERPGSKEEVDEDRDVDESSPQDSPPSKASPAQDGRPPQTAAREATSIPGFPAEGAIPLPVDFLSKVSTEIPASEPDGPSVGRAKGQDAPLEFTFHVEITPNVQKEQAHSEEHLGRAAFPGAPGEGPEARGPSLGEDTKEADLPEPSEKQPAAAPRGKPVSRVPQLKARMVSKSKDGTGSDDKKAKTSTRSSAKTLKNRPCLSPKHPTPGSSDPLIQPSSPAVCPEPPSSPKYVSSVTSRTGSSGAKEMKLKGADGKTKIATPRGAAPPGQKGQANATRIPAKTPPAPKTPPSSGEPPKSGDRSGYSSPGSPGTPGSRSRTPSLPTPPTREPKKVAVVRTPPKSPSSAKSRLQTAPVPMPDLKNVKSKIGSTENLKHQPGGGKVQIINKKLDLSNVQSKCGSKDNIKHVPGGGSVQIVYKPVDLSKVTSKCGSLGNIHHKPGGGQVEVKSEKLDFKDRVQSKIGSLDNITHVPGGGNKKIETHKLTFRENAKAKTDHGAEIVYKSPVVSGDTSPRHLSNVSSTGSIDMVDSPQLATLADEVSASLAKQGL

Results are given in words; binding and its absence hold for the method and conditions named. Some results given as binding are weak or reduced against the parent protein; the word gives no strength.

B1: 后段Tau蛋白单克隆抗体(冻存编号为37.1) (antibody, V domains shown)
VH: EVRLVESGGGLVQPGGSLRLSCATSGFTFSDFYMEWVRQSPGKRLEWIAASRDKTNDYTTEYNTSVKGRFIVSRDTSQSILYLQMNALRAEDTAIYYCARDAWFAYWGQGTLVTVSA
VL: DIVITQDELSNPVTSGESVSISCRSSKSLLYKDGKTYLNWFLQRPGQSPQLLIYLMSTRASGVSDRFSGSGSGTDFTLEISRVKAEDVGVYYCQQLLEYPVTFGAGTKLELK
Take B1: the binding entry is recorded as “binds”.

Source of the values: CN117946264A.
